These are yes or no findings as the source states them, for the method shown. Some entries that bind do so weakly or less than the wild type.
Assays:
[1] = molecular target: soluble native human GPC3 from tumor cell line supernatants (HepG2, NCI-H661, Hep3B) (human) (UniProt P51654); experiment: western blot of tumor cell line supernatants
[2] = molecular target: soluble native human GPC3 from tumor cell line supernatants (HepG2, NCI-H661, Hep3B) (human) (UniProt P51654); experiment: western blot of concentrated supernatants of HepG2, NCI-H661 and Hep3B
[3] = molecular target: soluble native human GPC3 from tumor cell line supernatants (HepG2, NCI-H661, Hep3B) (human) (UniProt P51654); experiment: western blot of concentrated serum-free supernatants of HepG2, NCI-H661 and Hep3B

Sequences of proteins named here, by UniProt entry; tags and fusion partners are left off. Residues count along the entry.
UniProt P51654, residues 25-554: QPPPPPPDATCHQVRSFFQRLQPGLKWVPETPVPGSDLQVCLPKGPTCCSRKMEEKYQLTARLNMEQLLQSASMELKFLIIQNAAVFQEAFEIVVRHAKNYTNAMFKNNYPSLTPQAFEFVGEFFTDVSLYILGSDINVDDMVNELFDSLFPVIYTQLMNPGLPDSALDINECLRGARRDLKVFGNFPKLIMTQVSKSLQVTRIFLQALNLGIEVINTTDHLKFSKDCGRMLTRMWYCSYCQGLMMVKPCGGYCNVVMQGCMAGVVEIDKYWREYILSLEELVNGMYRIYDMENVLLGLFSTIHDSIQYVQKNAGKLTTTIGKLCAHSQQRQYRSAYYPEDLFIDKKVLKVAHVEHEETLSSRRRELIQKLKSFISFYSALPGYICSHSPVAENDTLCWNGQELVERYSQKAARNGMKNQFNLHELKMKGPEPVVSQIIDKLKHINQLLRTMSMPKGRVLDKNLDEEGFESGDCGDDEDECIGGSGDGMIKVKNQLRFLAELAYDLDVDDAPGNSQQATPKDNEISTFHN

binding [1]: binds
binding [2]: binds
binding [3]: binds
B1: 204 monoclonal antibody (mouse anti-human GPC3) (antibody, IgG2b, V domains shown)
VH: EVQLQQSGPELVKPGASVKISCKTSGYTFTEYAMHWVKQSHGKSLEWIGGINPNNGVTTYNQRFKGKATLTVDKSSSTAYMELRSLTSEDSAVYYCARGLLWYAYWGQGTLVTVSA
VL: DIKMTQSPSSMYASLGERVTITCKASQDINSYLSWFQQKPGKSPKTLIYRANRLVDGVPSRFSGSGSGQDYSLTISSLEYEDMGIYYCLQYDEFPLTFGAGTKLELK
notes: also called GPC.204

Reference: US20250085287A1 (ADICET THERAPEUTICS, published 2025)
